According to the supplement of paper PMC10849652:
Some of the results follow.

The chains behind the UniProt entries cited, without tags or fusion partners. Where a name states a change or a piece, a line headed by the entry shows the natural chain unless it says otherwise.
UniProt Q9Y265, whole entry, looked up: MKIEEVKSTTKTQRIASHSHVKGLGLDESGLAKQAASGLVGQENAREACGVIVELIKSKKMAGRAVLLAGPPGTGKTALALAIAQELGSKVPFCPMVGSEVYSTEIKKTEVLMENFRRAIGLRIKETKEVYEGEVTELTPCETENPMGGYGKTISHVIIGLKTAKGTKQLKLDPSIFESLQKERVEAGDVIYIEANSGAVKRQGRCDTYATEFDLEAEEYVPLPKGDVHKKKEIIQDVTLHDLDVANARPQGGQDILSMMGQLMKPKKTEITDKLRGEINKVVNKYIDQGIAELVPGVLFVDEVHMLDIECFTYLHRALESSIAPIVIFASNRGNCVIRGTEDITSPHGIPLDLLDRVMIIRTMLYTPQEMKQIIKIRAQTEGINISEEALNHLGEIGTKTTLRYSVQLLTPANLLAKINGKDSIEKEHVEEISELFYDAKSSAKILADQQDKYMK
UniProt Q9Y3A4: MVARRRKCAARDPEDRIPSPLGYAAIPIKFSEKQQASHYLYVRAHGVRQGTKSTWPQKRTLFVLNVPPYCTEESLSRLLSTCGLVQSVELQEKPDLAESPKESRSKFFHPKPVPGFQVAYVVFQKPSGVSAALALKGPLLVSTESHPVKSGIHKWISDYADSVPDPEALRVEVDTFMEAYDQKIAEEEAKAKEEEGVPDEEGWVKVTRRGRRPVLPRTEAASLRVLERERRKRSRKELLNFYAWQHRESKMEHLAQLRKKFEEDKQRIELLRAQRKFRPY
UniProt Q7L3V2: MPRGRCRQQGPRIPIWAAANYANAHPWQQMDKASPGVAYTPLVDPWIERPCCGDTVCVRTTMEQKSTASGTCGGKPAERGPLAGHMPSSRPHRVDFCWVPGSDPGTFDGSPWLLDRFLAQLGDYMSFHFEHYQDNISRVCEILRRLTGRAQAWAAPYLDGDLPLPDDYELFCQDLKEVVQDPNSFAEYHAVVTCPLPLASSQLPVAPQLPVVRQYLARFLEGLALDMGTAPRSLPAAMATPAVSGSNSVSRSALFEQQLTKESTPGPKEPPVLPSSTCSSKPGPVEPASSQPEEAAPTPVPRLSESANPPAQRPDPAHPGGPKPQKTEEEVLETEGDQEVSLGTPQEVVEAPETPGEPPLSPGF
UniProt Q5VZM2, whole entry, looked up: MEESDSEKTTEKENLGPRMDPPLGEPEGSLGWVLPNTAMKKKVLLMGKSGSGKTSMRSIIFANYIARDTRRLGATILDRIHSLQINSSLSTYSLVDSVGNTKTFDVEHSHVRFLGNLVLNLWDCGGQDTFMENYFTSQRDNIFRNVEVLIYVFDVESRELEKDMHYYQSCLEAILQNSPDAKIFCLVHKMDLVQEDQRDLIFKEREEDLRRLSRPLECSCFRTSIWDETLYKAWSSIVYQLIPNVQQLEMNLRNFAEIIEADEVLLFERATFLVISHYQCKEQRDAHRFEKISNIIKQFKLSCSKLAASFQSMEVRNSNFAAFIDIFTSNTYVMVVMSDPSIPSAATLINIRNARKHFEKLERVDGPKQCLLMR
UniProt Q9HA92: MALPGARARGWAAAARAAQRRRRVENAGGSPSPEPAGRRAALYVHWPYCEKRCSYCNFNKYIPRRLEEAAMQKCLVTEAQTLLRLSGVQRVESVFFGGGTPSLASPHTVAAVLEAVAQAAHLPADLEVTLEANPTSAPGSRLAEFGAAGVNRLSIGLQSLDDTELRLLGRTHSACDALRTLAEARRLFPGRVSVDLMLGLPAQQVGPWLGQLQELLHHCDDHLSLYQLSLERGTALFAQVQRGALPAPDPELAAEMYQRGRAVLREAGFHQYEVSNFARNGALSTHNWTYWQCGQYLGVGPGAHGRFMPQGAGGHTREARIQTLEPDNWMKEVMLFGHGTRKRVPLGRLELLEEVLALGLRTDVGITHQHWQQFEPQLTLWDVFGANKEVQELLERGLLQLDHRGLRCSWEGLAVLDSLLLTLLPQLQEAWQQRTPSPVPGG
UniProt O95059: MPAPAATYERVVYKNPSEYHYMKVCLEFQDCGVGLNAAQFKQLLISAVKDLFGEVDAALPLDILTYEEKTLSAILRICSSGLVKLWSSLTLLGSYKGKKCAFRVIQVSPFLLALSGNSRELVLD
UniProt Q9NYV6: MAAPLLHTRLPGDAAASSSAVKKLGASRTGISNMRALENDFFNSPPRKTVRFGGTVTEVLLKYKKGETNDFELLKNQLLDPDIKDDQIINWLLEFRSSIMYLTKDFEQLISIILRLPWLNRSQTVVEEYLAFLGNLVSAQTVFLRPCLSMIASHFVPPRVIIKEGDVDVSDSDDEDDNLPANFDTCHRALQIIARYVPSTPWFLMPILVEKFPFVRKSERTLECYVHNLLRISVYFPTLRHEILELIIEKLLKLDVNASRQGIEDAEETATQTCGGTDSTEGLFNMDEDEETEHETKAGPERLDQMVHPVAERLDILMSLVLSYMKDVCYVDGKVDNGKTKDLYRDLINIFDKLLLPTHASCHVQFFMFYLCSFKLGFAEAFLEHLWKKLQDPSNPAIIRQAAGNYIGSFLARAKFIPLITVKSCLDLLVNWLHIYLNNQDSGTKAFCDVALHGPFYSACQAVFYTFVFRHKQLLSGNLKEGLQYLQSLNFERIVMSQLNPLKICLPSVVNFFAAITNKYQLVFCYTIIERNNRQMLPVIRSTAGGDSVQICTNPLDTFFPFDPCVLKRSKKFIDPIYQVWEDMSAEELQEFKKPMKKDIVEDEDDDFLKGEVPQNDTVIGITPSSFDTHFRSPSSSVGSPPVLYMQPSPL
UniProt P29034: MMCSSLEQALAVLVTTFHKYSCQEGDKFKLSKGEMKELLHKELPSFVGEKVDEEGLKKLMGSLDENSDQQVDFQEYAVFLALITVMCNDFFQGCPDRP
UniProt Q96T23: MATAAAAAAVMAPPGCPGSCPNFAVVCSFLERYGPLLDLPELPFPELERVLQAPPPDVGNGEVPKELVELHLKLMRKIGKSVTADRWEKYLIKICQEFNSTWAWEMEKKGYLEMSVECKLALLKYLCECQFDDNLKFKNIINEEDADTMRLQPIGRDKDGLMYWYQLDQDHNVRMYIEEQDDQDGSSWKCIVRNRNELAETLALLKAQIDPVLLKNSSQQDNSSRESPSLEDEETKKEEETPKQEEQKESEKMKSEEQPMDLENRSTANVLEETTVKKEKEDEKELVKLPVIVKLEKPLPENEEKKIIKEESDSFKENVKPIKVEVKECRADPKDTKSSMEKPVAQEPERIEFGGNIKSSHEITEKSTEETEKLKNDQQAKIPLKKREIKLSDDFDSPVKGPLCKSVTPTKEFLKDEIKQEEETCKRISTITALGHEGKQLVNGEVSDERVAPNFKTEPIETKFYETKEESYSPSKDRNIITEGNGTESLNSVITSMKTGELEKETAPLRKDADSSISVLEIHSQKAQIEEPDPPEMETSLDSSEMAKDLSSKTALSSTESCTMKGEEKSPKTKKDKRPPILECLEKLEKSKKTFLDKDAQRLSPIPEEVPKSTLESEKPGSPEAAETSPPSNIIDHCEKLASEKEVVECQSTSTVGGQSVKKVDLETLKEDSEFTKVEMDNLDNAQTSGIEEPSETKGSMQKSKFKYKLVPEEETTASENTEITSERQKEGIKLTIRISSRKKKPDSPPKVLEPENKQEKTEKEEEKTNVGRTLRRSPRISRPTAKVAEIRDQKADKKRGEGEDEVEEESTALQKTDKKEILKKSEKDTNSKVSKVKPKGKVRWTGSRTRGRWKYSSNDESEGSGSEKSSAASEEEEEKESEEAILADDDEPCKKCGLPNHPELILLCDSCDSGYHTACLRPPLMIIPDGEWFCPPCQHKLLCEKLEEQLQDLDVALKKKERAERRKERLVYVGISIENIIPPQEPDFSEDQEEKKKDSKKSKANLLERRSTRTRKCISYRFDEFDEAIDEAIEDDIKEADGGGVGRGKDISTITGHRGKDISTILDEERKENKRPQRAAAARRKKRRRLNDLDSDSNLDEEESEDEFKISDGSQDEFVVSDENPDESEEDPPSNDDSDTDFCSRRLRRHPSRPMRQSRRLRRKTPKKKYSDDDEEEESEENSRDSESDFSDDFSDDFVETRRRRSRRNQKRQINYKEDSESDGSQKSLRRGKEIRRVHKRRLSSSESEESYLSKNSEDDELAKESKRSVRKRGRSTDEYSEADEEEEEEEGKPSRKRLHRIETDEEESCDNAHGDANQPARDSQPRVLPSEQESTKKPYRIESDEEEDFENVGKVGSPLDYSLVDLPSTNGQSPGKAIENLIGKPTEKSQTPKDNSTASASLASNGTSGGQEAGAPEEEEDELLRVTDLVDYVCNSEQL
UniProt Q96EU6: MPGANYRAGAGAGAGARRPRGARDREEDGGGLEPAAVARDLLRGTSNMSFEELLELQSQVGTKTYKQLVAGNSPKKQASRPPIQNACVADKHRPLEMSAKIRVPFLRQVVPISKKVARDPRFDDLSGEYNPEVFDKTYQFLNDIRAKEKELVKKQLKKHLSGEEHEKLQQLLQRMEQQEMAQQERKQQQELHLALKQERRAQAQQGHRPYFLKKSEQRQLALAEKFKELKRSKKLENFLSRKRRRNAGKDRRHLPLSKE
UniProt P57060: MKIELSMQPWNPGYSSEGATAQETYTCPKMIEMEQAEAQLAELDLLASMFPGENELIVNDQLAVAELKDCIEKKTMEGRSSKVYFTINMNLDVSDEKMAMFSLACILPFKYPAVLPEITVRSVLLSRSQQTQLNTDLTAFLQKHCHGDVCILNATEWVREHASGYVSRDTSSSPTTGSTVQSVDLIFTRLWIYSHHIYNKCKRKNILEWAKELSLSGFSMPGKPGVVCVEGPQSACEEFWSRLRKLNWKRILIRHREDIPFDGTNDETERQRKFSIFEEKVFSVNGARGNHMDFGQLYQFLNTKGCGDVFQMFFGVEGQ
UniProt P78345: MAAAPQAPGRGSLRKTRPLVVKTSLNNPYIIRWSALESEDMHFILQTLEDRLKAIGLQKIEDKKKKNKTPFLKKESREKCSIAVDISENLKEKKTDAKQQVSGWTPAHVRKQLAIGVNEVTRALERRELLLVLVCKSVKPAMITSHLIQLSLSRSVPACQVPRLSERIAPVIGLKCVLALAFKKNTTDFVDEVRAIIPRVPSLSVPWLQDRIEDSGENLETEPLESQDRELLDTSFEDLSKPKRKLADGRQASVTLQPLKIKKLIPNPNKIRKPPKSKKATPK
UniProt P28702: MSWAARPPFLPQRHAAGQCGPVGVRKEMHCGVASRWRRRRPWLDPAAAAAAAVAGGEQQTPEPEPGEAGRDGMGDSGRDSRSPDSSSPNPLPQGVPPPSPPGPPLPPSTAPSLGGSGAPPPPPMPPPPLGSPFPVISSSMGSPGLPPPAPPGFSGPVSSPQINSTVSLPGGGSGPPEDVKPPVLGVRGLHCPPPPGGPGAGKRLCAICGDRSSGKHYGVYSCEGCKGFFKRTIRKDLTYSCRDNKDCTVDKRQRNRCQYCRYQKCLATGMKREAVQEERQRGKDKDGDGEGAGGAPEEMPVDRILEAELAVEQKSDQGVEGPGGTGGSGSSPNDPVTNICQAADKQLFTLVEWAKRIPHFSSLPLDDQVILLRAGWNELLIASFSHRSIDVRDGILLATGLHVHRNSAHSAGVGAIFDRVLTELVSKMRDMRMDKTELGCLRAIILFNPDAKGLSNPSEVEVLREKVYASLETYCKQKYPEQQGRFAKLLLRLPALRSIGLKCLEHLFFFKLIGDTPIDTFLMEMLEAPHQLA
UniProt Q7L523, whole entry, looked up: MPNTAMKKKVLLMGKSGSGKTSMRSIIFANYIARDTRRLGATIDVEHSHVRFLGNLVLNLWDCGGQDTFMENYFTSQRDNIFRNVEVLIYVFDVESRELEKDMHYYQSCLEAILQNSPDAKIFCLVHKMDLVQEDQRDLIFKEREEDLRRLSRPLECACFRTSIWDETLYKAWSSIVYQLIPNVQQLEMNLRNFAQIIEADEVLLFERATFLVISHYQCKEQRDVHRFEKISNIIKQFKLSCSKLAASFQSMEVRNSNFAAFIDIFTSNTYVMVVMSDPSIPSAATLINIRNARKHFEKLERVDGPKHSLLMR

Columns and labels:
Assay in all cases: log2 fold change, soluble protein after heating vs DMSO (PISA); higher = thermal stabilisation; K562 lysate, 10 uM; active = over 0.2 and 3.5 SD of the protein, either way, in both replicates (recomputed)
vemurafenib = compound: CCCS(=O)(=O)Nc1ccc(F)c(C(=O)c2c[nH]c3ncc(-c4ccc(Cl)cc4)cc23)c1F [vemurafenib]
Procedure, shortened: (§1)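 Pellets of K562 cells were dounce-homogenised in PBS pH 7.4 with 1 mM MgCl2, and the crude extract was held at 1 mg/mL protein for a 30 min treatment with 10 μM compound. Aliquots were heated for 3 min over 48°C-58°C and pooled before NP-40 was added to 0.5% at 4°C. The supernatant from 21,000xg for 90 min was quantified by TMTpro 16plex LC-MS/MS with channel sums equalised. Values are reported from duplicates as log-two fold change in thermal stability relative to solvent controls.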

[1] = compound: CCCS(=O)(=O)Nc1ccc(F)c(C(=O)c2c[nH]c3ncc(Cl)cc23)c1F
Procedure, shortened: as §1

barasertib = compound: CCN(CCCOc1ccc2c(Nc3cc(CC(=O)Nc4cccc(F)c4)[nH]n3)ncnc2c1)CCOP(=O)(O)O [barasertib]
Procedure, shortened: as §1

[2] = compound: CC[C@@H]1C(=O)N(C)c2cnc(Nc3ccc(C(=O)NC4CCN(C)CC4)cc3OC)nc2N1C1CCCC1
Procedure, shortened: as §1

volasertib = compound: CC[C@@H]1C(=O)N(C)c2cnc(Nc3ccc(C(=O)N[C@H]4CC[C@H](N5CCN(CC6CC6)CC5)CC4)cc3OC)nc2N1C(C)C [volasertib]
Procedure, shortened: as §1

[3] = compound: CCn1c(C(=O)N(C2CC2)C2CC2)cc2c3c(ncn3C)c(Nc3cc(C)n(C)n3)nc21
Procedure, shortened: as §1

[4] = compound: CCn1cc(-c2ccnc3[nH]c(-c4cccc(CN(C)C)c4)cc23)c(-c2ccc(NC(=O)N(C)C)cc2)n1
Procedure, shortened: as §1

[5] = compound: CN1CCC(CNc2ccc3ncc(-c4cccc(OC(F)(F)F)c4)n3n2)CC1
Procedure, shortened: as §1

saracatinib = compound: CN1CCN(CCOc2cc(OC3CCOCC3)c3c(Nc4c(Cl)ccc5c4OCO5)ncnc3c2)CC1 [saracatinib]
Procedure, shortened: as §1

sotrastaurin = compound: CN1CCN(c2nc(C3=C(c4c[nH]c5ccccc45)C(=O)NC3=O)c3ccccc3n2)CC1 [sotrastaurin]
Procedure, shortened: as §1

alvocidib = compound: CN1CC[C@H](c2c(O)cc(O)c3c(=O)cc(-c4ccccc4Cl)oc23)[C@H](O)C1 [alvocidib]
Procedure, shortened: as §1

Tubastatin A = compound: CN1CCc2c(c3ccccc3n2Cc2ccc(C(=O)NO)cc2)C1 [Tubastatin A]
Procedure, shortened: as §1

[6] = compound: CNC(=O)C1=CC=CC=C1NC2=NC(=NC=C2Cl)NC3=C(C=C(C=C3)N4CCOCC4)OC
Procedure, shortened: as §1

defactinib = compound: CNC(=O)c1ccc(Nc2ncc(C(F)(F)F)c(NCc3nccnc3N(C)S(C)(=O)=O)n2)cc1 [defactinib]
Procedure, shortened: as §1

[7] = compound: CNc1nc(-c2ccc3c(N)n[nH]c3c2)cc(N2C[C@@H](C(=O)NC3CCCCC3)CC[C@H]2C)n1
Procedure, shortened: as §1

encorafenib = compound: COC(=O)N[C@@H](C)CNc1nccc(-c2cn(C(C)C)nc2-c2cc(Cl)cc(NS(C)(=O)=O)c2F)n1 [encorafenib]
Procedure, shortened: as §1

[8] = compound: COC(=O)[C@H](CCSC)NC(=O)C1=C(C=C(C=C1)NC[C@H](CS)N)C2=CC=CC=C2
Procedure, shortened: as §1

alisertib = compound: COc1cc(Nc2ncc3c(n2)-c2ccc(Cl)cc2C(c2c(F)cccc2OC)=NC3)ccc1C(=O)O [alisertib]
Procedure, shortened: as §1

[9] = compound: COc1cc2nc(-c3cc(F)ccc3O)nc(N[C@@H]3CNC[C@H]3C(C)(C)O)c2cc1OC
Procedure, shortened: as §1

gefitinib = compound: COc1cc2ncnc(Nc3ccc(F)c(Cl)c3)c2cc1OCCCN1CCOCC1 [gefitinib]
Procedure, shortened: as §1

Row | Target | log2 fold change (vemurafenib) | log2 fold change [1] | log2 fold change (barasertib) | log2 fold change [2] | log2 fold change (volasertib) | log2 fold change [3] | log2 fold change [4] | log2 fold change [5] | log2 fold change (saracatinib) | log2 fold change (sotrastaurin) | log2 fold change (alvocidib) | log2 fold change (Tubastatin A) | log2 fold change [6] | log2 fold change (defactinib) | log2 fold change [7] | log2 fold change (encorafenib) | log2 fold change [8] | log2 fold change (alisertib) | log2 fold change [9] | log2 fold change (gefitinib)
1 | RPS26 (UniProt P62854) | inactive: 0.077 | inactive: 0.015 | inactive: -0.084 | inactive: 0.032 | inactive: 0.021 | inactive: -0.072 | inactive: -0.192 | inactive: 0.045 | inactive: 0.032 | inactive: 0.044 | inactive: 0.037 | inactive: 0.056 | inactive: -0.046 | inactive: -0.035 | inactive: 0.04 | inactive: 0.019 | inactive: 0.032 | inactive: 0.075 | inactive: -0.039 | inactive: -0.039
2 | RPS2 (UniProt P15880) | inactive: -0.011 | inactive: 0.002 | inactive: -0.038 | inactive: 0.001 | inactive: -0.005 | inactive: -0.019 | inactive: 0.004 | inactive: -0.029 | inactive: -0.015 | inactive: -0.016 | inactive: 0.01 | inactive: 0.007 | inactive: -0.006 | inactive: 0.017 | inactive: 0.058 | inactive: -0.032 | inactive: 0.019 | inactive: 0.008 | inactive: -0.005 | inactive: -0.044
3 | RUVBL1 (UniProt Q9Y265) | inactive: 0.015 | inactive: 0.007 | inactive: -0.013 | inactive: -0.004 | inactive: -0.012 | inactive: -0.007 | inactive: -0.009 | inactive: 0.043 | inactive: 0.005 | inactive: -0.013 | inactive: 0.012 | inactive: 0.033 | inactive: -0.014 | inactive: -0.011 | inactive: 0.011 | inactive: -0.018 | inactive: -0.017 | inactive: 0 | inactive: 0.002 | inactive: -0.01
4 | RRP7A (UniProt Q9Y3A4) | inactive: 0.031 | inactive: 0.059 | inactive: 0.027 | inactive: 0.08 | inactive: 0.067 | inactive: -0.115 | inactive: -0.012 | inactive: -0.009 | inactive: -0.05 | inactive: 0.062 | inactive: -0.009 | inactive: -0.021 | inactive: 0.053 | inactive: -0.025 | inactive: -0.139 | inactive: -0.006 | inactive: -0.07 |  | inactive: 0.02 | 
5 | RTL10 (UniProt Q7L3V2) | inactive: 0.027 |  | inactive: -0.105 | inactive: 0.074 |  | inactive: -0.011 | inactive: 0.01 | inactive: -0.087 | inactive: 0.101 | inactive: 0.008 | inactive: 0.05 | inactive: 0.063 | inactive: -0.042 | inactive: 0.08 | inactive: 0.009 | inactive: 0.031 | inactive: -0.041 | inactive: 0.065 |  | inactive: -0.233
6 | RRAGB (UniProt Q5VZM2) | inactive: -0.042 | inactive: 0.044 | inactive: -0.013 | inactive: -0.028 | inactive: 0.035 | inactive: -0.011 | inactive: -0.053 | inactive: 0.073 | inactive: 0.018 | inactive: 0.017 | inactive: -0.038 | inactive: 0.006 | inactive: 0.009 | inactive: 0.024 | inactive: -0.018 | inactive: 0.028 | inactive: -0.058 | inactive: -0.007 | inactive: 0.006 | inactive: -0.044
7 | RSAD1 (UniProt Q9HA92) | inactive: 0.038 | inactive: 0.057 | inactive: 0.177 | inactive: 0.388 | inactive: -0.013 | inactive: -0.092 | inactive: -0.314 | inactive: -0.041 | inactive: -0.005 | inactive: 0.162 | inactive: -0.146 | inactive: 0.027 | inactive: 0.001 | inactive: 0.043 | inactive: 0.701 | inactive: -0.19 | inactive: 0.146 |  | inactive: 0.178 | 
8 | RPL7A (UniProt P62424) | inactive: -0.003 | inactive: -0.002 | inactive: -0.051 | inactive: 0.012 | inactive: -0.008 | inactive: -0.01 | inactive: 0.203 | inactive: -0.024 | inactive: 0.013 | inactive: -0.014 | inactive: 0.003 | inactive: 0.061 | inactive: -0.018 | inactive: -0.003 | inactive: 0.047 | inactive: -0.023 | inactive: -0.015 | inactive: 0 | inactive: 0.009 | inactive: -0.06
9 | RPP14 (UniProt O95059) | inactive: -0.166 | inactive: -0.066 | inactive: -0.038 | inactive: -0.009 | inactive: 0.005 | inactive: -0.007 | inactive: 0.1 | inactive: 0.014 |  | inactive: 0.065 | inactive: -0.028 | inactive: 0.003 | inactive: 0.016 | inactive: 0.088 |  | inactive: -0.054 | inactive: -0.043 | inactive: -0.014 | inactive: -0.034 | inactive: -0.097
10 | RRN3 (UniProt Q9NYV6) | inactive: 0.051 | inactive: -0.013 | inactive: 0.099 | inactive: -0.034 | inactive: -0.006 | inactive: -0.028 | inactive: -0.083 | inactive: 0.024 | inactive: 0.214 | inactive: 0.16 | inactive: 0.02 | inactive: -0.033 |  | inactive: -0.032 | inactive: 0.005 | inactive: 0.006 | inactive: 0.06 | inactive: -0.044 | inactive: 0.02 | inactive: 0.127
11 | S100A2 (UniProt P29034) | inactive: 0.199 | inactive: 0.035 | inactive: 0.252 | inactive: 0.062 | inactive: -0.051 | inactive: -0.248 | inactive: -0.497 | inactive: 0.482 |  | inactive: -0.083 | inactive: -0.197 | inactive: -0.005 | inactive: -0.087 | inactive: -0.064 |  | inactive: 0.049 | inactive: 0.047 | inactive: 0.024 | inactive: 0.147 | inactive: 0.091
12 | RSF1 (UniProt Q96T23) | inactive: 0.105 | inactive: 0.05 | inactive: 0.004 | inactive: 0.007 | inactive: 0.016 | inactive: 0.003 | inactive: 0.074 | inactive: -0.04 | inactive: -0.024 | inactive: -0.011 | inactive: 0.047 | inactive: -0.062 | inactive: -0.209 | inactive: 0.095 | inactive: -0.072 | inactive: 0.029 | inactive: -0.074 |  | inactive: -0.024 | 
13 | RRP36 (UniProt Q96EU6) | inactive: -0.041 | inactive: 0.038 |  | inactive: 0.169 | inactive: -0.023 | inactive: 0.012 |  |  | inactive: 0.026 | inactive: 0.138 |  | inactive: -0.035 | inactive: 0.112 | inactive: -0.169 | inactive: 0.239 | inactive: 0.148 | inactive: -0.183 |  | inactive: 0.056 | 
14 | RWDD2B (UniProt P57060) | inactive: 0.042 | inactive: -0.028 | inactive: -0.029 | inactive: 0.127 | inactive: 0 | inactive: -0.011 |  |  | inactive: 0.003 | inactive: 0.066 |  | inactive: -0.033 | inactive: 0.034 | inactive: 0.017 | inactive: 0.125 | inactive: 0.123 | inactive: -0.028 | inactive: 0.047 | inactive: -0.03 | inactive: -0.054
15 | RPP38 (UniProt P78345) | inactive: -0.017 | inactive: 0.011 | inactive: -0.007 | inactive: 0.04 | inactive: 0.004 | inactive: -0.011 | inactive: -0.113 | inactive: 0.024 | inactive: -0.028 | inactive: -0.004 | inactive: -0.03 | inactive: 0 | inactive: 0.017 | inactive: 0.011 | inactive: 0.05 | inactive: 0.016 | inactive: -0.024 | inactive: -0.001 | inactive: -0.01 | inactive: 0.007
16 | RXRB isoform 3 (UniProt P28702) | inactive: 0.028 | inactive: 0.136 | inactive: 0.106 | inactive: 0.008 | inactive: -0.125 |  | inactive: -0.008 | inactive: -0.089 | inactive: -0.048 | inactive: -0.051 | inactive: 0.008 |  | inactive: 0.126 | inactive: 0.05 | inactive: -0.003 | inactive: 0.066 | inactive: -0.042 | inactive: -0.044 | inactive: 0.073 | inactive: 0.047
17 | RPS7, A0A2R8Y623 | inactive: 0.313 | inactive: -0.143 | inactive: 0.4 | inactive: -0.07 | inactive: 0.016 |  |  |  | inactive: 0.348 |  |  |  | inactive: -0.207 | inactive: 0.075 | inactive: -0.124 | inactive: 0.024 | inactive: 0.41 |  | inactive: -0.114 | 
18 | RRAGA (UniProt Q7L523) | inactive: 0.111 | inactive: 0.092 | inactive: -0.004 | inactive: 0.014 | inactive: 0.042 | inactive: 0.139 | inactive: -0.011 | inactive: 0.051 | inactive: 0.081 | inactive: -0.014 | inactive: -0.122 | active: -0.687 | inactive: -0.053 | inactive: -0.044 | inactive: -0.045 | inactive: -0.032 | inactive: -0.022 | inactive: -0.161 | inactive: 0.017 | inactive: 0.04

Reformatted in markdown: entries from further up

| Row | Target | log2 fold change (vemurafenib) | log2 fold change [1] | log2 fold change (barasertib) | log2 fold change [2] | log2 fold change (volasertib) | log2 fold change [3] | log2 fold change [4] | log2 fold change [5] | log2 fold change (saracatinib) | log2 fold change (sotrastaurin) | log2 fold change (alvocidib) | log2 fold change (Tubastatin A) | log2 fold change [6] | log2 fold change (defactinib) | log2 fold change [7] | log2 fold change (encorafenib) | log2 fold change [8] | log2 fold change (alisertib) | log2 fold change [9] | log2 fold change (gefitinib) |
| --- | --- | --- | --- | --- | --- | --- | --- | --- | --- | --- | --- | --- | --- | --- | --- | --- | --- | --- | --- | --- | --- |
| 6 | RRAGB (UniProt Q5VZM2) | inactive: -0.042 | inactive: 0.044 | inactive: -0.013 | inactive: -0.028 | inactive: 0.035 | inactive: -0.011 | inactive: -0.053 | inactive: 0.073 | inactive: 0.018 | inactive: 0.017 | inactive: -0.038 | inactive: 0.006 | inactive: 0.009 | inactive: 0.024 | inactive: -0.018 | inactive: 0.028 | inactive: -0.058 | inactive: -0.007 | inactive: 0.006 | inactive: -0.044 |
| 16 | RXRB isoform 3 (UniProt P28702) | inactive: 0.028 | inactive: 0.136 | inactive: 0.106 | inactive: 0.008 | inactive: -0.125 |  | inactive: -0.008 | inactive: -0.089 | inactive: -0.048 | inactive: -0.051 | inactive: 0.008 |  | inactive: 0.126 | inactive: 0.05 | inactive: -0.003 | inactive: 0.066 | inactive: -0.042 | inactive: -0.044 | inactive: 0.073 | inactive: 0.047 |
